In assay [1] the target is T1, Wnt7a-HA, full length (Wnt7a-FL) (human) (UniProt O00755).
T1 sequence: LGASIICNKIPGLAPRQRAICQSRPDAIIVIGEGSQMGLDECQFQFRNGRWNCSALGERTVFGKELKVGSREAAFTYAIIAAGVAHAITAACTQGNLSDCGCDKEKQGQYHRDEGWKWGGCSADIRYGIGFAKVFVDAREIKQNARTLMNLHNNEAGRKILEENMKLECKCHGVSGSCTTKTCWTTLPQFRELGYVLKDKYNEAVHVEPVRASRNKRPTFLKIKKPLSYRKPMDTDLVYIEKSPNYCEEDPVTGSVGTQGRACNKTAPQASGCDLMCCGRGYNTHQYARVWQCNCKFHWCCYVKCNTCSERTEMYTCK
Put plainly: proximity ligation.

The next assay addresses Wnt7a_ΔEBP*GSGS (human) (UniProt O00755). Briefly: proximity ligation.
The target of a further assay is T2, Wnt7a_ΔSP (human) (UniProt O00755).
T2 sequence: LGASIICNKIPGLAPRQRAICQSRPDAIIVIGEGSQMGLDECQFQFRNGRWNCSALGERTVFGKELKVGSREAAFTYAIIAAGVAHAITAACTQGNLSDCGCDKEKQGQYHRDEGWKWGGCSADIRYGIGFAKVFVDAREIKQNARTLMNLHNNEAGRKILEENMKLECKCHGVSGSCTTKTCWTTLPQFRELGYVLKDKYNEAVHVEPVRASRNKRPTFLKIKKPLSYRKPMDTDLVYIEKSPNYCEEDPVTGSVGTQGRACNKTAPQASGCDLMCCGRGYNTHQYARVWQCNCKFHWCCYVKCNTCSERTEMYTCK
Briefly: proximity ligation.

Assay [2] has as its target T3, endogenous Wnt7a (human (endogenous in RPTEC-hTERT1)) (UniProt O00755).
T3 sequence: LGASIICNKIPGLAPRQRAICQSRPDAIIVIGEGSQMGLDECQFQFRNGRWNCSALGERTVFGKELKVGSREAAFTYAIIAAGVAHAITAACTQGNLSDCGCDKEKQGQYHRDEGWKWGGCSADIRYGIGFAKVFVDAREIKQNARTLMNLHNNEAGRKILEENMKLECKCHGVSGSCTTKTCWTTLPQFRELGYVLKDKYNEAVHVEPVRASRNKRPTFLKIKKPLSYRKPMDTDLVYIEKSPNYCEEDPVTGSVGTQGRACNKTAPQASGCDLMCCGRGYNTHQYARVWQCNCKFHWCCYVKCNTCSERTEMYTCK
Put plainly: proximity ligation.

For assay [3], the target named is T4, COPB2 (human (endogenous in HEK293T)) (UniProt P35606).
T4 sequence: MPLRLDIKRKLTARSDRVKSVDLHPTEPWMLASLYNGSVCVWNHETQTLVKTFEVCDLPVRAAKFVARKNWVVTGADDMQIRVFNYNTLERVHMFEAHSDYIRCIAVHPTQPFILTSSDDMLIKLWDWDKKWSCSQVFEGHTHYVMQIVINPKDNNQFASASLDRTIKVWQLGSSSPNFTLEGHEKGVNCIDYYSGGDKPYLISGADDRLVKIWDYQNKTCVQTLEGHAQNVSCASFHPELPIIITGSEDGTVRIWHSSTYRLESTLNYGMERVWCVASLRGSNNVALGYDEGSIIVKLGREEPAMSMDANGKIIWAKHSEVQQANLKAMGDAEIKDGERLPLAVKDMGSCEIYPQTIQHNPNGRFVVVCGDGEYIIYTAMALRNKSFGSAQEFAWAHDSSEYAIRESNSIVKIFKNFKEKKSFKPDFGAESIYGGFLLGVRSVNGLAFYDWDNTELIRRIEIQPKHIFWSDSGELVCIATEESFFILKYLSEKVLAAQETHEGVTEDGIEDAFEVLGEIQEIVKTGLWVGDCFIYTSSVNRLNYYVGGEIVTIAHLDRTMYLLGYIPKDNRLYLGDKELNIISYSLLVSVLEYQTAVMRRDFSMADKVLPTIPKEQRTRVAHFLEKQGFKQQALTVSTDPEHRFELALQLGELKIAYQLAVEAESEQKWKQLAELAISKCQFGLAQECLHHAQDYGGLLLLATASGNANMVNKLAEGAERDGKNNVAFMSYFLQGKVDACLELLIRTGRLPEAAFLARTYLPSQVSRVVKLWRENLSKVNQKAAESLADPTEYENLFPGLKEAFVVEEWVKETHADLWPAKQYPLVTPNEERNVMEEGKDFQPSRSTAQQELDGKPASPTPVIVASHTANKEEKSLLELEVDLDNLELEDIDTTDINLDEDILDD
Put plainly: co-IP.

Assay [4] has as its target T1, Wnt7a-HA, full length (Wnt7a-FL) (human). Put plainly: co-IP.

No constants are given. Whether binding was seen depends on the method and setting. Binding seen in cells or lysates may run through a third protein. Some entries that bind do so weakly or less than the wild type. For part of these data: Tags and fused reporters may be left off the sequences shown.

B1: COPA (protein, UniProt P53621)
chain: MLTKFETKSARVKGLSFHPKRPWILTSLHNGVIQLWDYRMCTLIDKFDEHDGPVRGIDFHKQQPLFVSGGDDYKIKVWNYKLRRCLFTLLGHLDYIRTTFFHHEYPWILSASDDQTIRVWNWQSRTCVCVLTGHNHYVMCAQFHPTEDLVVSASLDQTVRVWDISGLRKKNLSPGAVESDVRGITGVDLFGTTDAVVKHVLEGHDRGVNWAAFHPTMPLIVSGADDRQVKIWRMNESKAWEVDTCRGHYNNVSCAVFHPRQELILSNSEDKSIRVWDMSKRTGVQTFRRDHDRFWVLAAHPNLNLFAAGHDGGMIVFKLERERPAYAVHGNMLHYVKDRFLRQLDFNSSKDVAVMQLRSGSKFPVFNMSYNPAENAVLLCTRASNLENSTYDLYTIPKDADSQNPDAPEGKRSSGLTAVWVARNRFAVLDRMHSLLIKNLKNEITKKVQVPNCDEIFYAGTGNLLLRDADSITLFDVQQKRTLASVKISKVKYVIWSADMSHVALLAKHAIVICNRKLDALCNIHENIRVKSGAWDESGVFIYTTSNHIKYAVTTGDHGIIRTLDLPIYVTRVKGNNVYCLDRECRPRVLTIDPTEFKFKLALINRKYDEVLHMVRNAKLVGQSIIAYLQKKGYPEVALHFVKDEKTRFSLALECGNIEIALEAAKALDDKNCWEKLGEVALLQGNHQIVEMCYQRTKNFDKLSFLYLITGNLEKLRKMMKIAEIRKDMSGHYQNALYLGDVSERVRILKNCGQKSLAYLTAATHGLDEEAESLKETFDPEKETIPDIDPNAKLLQPPAPIMPLDTNWPLLTVSKGFFEGTIASKGKGGALAADIDIDTVGTEGWGEDAELQLDEDGFVEATEGLGDDALGKGQEEGGGWDVEEDLELPPELDISPGAAGGAEDGFFVPPTKGTSPTQIWCNNSQLPVDHILAGSFETAMRLLHDQVGVIQFGPYKQLFLQTYARGRTTYQALPCLPSMYGYPNRNWKDAGLKNGVPAVGLKLNDLIQRLQLCYQLTTVGKFEEAVEKFRSILLSVPLLVVDNKQEIAEAQQLITICREYIVGLSVETERKKLPKETLEQQKRICEMAAYFTHSNLQPVHMILVLRTALNLFFKLKNFKTAATFARRLLELGPKPEVAQQTRKILSACEKNPTDAYQLNYDMHNPFDICAASYRPIYRGKPVEKCPLSGACYSPEFKGQICRVTTVTEIGKDVIGLRISPLQFR
As to B1, the binding entry in assay [1] is listed as “binds”; in the assay with Wnt7a_ΔEBP*GSGS (human) it was “no binding”; with Wnt7a_ΔSP (human), “binds”; in assay [2], “binds”; in assay [3] it was “binds”; in assay [4], “binds”.

The values are drawn from article doi:10.1101/2023.05.30.542914 (bioRxiv, 2023).
